Test results: PubChem BioAssay AID463116 (University of Pittsburgh Molecular Library Screening Center, 2010)
The other results are listed elsewhere or left out. The main result of the screen is listed elsewhere. These columns were measured beside it and carry no call. The list favours compounds with an active or inconclusive main result.

Test: dynein cargo transport inhibitors, GR-EGFP translocation, confirmation, imaging, high-content imaging, GR-EGFP cells (AID 463116)
Conditions: 3617.4 GR-EGFP nuclear translocation imaging, dexamethasone-induced; measured here: cell count per field; at 20 µM

SMILES	z-score
CC(=O)NCc1ccc(C(=O)CCl)s1	-0.0755
CCOc1ccc(C(=O)/C=C/c2cc(OC)c(OC)c(OC)c2)cc1	0.0235
CCn1nc(C)cc1C(=O)Sc1cccc(Br)c1	-0.165
O=C1C=CC(=O)N1c1ccc(O)cc1	-5.48
NC(=O)/C=C/C(=O)Nc1ccc(Cl)cc1	-0.0463
CC(C)(C)C(=O)/C=c1\s/c(=C\c2ccc(-c3ccc([N+](=O)[O-])cc3)o2)c(=O)n1CC(=O)NC(N)=O	0.221
O=c1c(Cl)cc(Cl)nn1-c1ccccc1	0.351
O=C(CC1Sc2ncnn2C1=O)Nc1ccc(Br)cc1 (centres undefined)	0.574
O=c1c(Cl)c(NCCCO)cnn1-c1nc2ccccc2[nH]1	0.55
O=S(=O)(c1ccccc1)c1ncc(C(F)(F)F)cc1Cl	0.401
CCCCNc1ccc2c3c(cccc13)C(=O)N(CCCC)C2=O	-0.241
CCCCCn1c(=O)c2ccccc2n2c(CCl)nnc12	-0.304
O=C(Cc1cccs1)Nc1nc(-c2ccc(F)cc2F)cs1	-0.372
O=S(=O)(CCN(CCS(=O)(=O)C(F)(F)F)CC1CCCO1)C(F)(F)F (centres undefined)	0.838
O=S(=O)(c1cnc(Cl)c(Br)c1)N1CCc2ccccc21	-0.273
O=C(CCl)Nc1cc(SCC(O)CO)cc([N+](=O)[O-])c1 (centres undefined)	0.611
CCC(=O)N1CCN(c2ccc(NC(=O)c3ccc([N+](=O)[O-])o3)cc2)CC1	0.0389
Cc1ccc(-n2nnnc2CCl)cc1	0.0417
COc1cccc(/C=C/C(=O)c2ccc(C)c([N+](=O)[O-])c2)c1	0.404
CCCCS(=O)(=O)/C=C\C=C/S(=O)(=O)CCCC	0.132

In another format: entries from further up.
SMILES | z-score
O=C(Cc1cccs1)Nc1nc(-c2ccc(F)cc2F)cs1 | -0.372
O=S(=O)(CCN(CCS(=O)(=O)C(F)(F)F)CC1CCCO1)C(F)(F)F (centres undefined) | 0.838
O=S(=O)(c1cnc(Cl)c(Br)c1)N1CCc2ccccc21 | -0.273

Remaining list, next part

SMILES	z-score
C[C@@H](NC(=O)OC(C)(C)C)c1nnc(S(=O)(=O)Cc2ccccc2)o1	0.919
CCOc1nc(C#N)nc(N2CCCCC2)n1	0.386
O=C(Cn1ncc(Cl)c(Cl)c1=O)N1CCN(S(=O)(=O)c2ccc3ccccc3c2)CC1	0.336
O=C1CCCCc2sc(Br)c([N+](=O)[O-])c2N1	-0.0348
O=C(Nc1ccccc1)c1nnsc1S(=O)c1ccc(Cl)cc1 (centres undefined)	-1.77
Cc1cc(C(=O)Cn2ncc(Cl)c(Cl)c2=O)c(C)n1CC(F)(F)F	-0.264
CC1=CC(=O)C=C(C)C1=NOS(=O)(=O)c1ccccc1	0.8
CCCCCCC(=O)N(O)C1CC(=O)N(c2ccc(Cl)cc2)C1=O (centres undefined)	0.537
O=C(/C=C/c1ccccc1Cl)c1cccnc1	0.136
CCOc1ccc2nc(SC3CC(=O)N(c4ccc(OC)cc4OC)C3=O)sc2c1 (centres undefined)	0.173
O=C(c1nnsc1S(=O)(=O)c1ccc(Cl)cc1)N1CCOCC1	0.964
CN(C)c1ccc(/C=C/C(=O)c2cccc(Br)c2)cc1	0.277
Cc1cc(Sc2nc(N)ncc2[N+](=O)[O-])ncn1	0.266
CC1(C)C(=O)Nc2ccccc2N1C(=O)Cn1ncc(Cl)c(Cl)c1=O	0.178
CCC(=O)OCCNc1cc(SCCC(=O)OC)c2nonc2c1[N+](=O)[O-]	0.0119
O=C(Nc1ccc(N2CCCC2)c(Cl)c1)c1ccc([N+](=O)[O-])o1	0.267
Cc1cc(/C=C2\Sc3ccccc3N2C)cc(C)[n+]1CC1CCCO1 (centres undefined)	-0.307
COc1ccc(-c2cc(N)n(S(=O)(=O)c3c(F)c(F)c(F)c(F)c3F)n2)cc1OC	-0.602
O=c1[nH]sc2ccccc12	0.32
O=C(/C=C/c1ccccn1)c1ccc(Br)cc1O	0.709

SMILES	z-score
Cc1c(-c2ccc(O)cc2)nc2nc(-c3ccccc3)c(-c3ccccc3)nn12	0.136
O=C(c1ccccc1)c1cc(Cl)ccc1N1C(=O)C=CC1=O	-1.48
Cc1cccn2c(=O)c(C=O)c(Cl)nc12	0.305
O=C(CS(=O)c1ccc(C(F)(F)F)cc1[N+](=O)[O-])Oc1ccccc1 (centres undefined)	-0.53
CN(C)c1nc(C=C(C#N)C#N)c(Cl)n1-c1ccc(F)cc1	0.946
O=C(NCc1ccccn1)c1coc(=O)c(Br)c1	-0.137
O=C(Cn1c(=O)oc2cc(S(=O)(=O)NCc3ccccc3)ccc21)N1CCCC1	-0.311
CC[C@H](C)/C=C(C)/C=C/C(=O)Cc1cc(O)c(C)c(O)c1C=O	0.389
O=Cc1s/c(=N\S(=O)(=O)c2ccccc2)n(CCCCl)c1Cl	0.116
O=c1c(Cl)c(Cl)cnn1Cc1ccccc1Cl	0.338
CC1(C)COC(/C=C/c2ccc([N+](=O)[O-])cc2)=N1	0.627
N#CCCn1cc(C=C(C#N)C#N)c(-c2ccc(-c3ccccc3)cc2)n1	-0.763
O=C(c1ccccc1)c1ccccc1N1C(=O)C=CC1=O	-0.854
CCCCCCN1C=CC(=C/C=C(\C#N)C(=O)OCC)C=C1	0.202
COc1ccc(C(c2c(C)[nH]n(C(N)=S)c2=O)C(C#N)C#N)cc1 (centres undefined)	0.566
COC(=O)c1cc(=O)n(Cc2ccc3c(c2)OCO3)c(=Nc2ccc(F)c(Cl)c2)s1	0.848
COC(=O)c1cc([N+](=O)[O-])c(-n2cncn2)c([N+](=O)[O-])c1	0.933
CCN(Cc1ccc(OC)c(F)c1)C(=O)CCl	0.0453
O=C(Nc1ccc(F)cc1)c1nn(-c2ccccc2)c(=O)cc1Cl	-0.314
